Earlier results as cited in patent publication US11564902B2, “Extended duration local anesthetic formulation” (Ventis Pharma, priority 2015, dated 2023).
Read-outs that look alike come from different tables or passages of the source.

Conditions: cited from earlier work; for toxic dose: intravascular absorption

For CCN(CC)CC(=O)Nc1c(C)cccc1C [lidocaine], the “generally accepted toxic dose” value (with epinephrine solution, total dose) is given as 7 mg per kg, the toxic dose (with epinephrine) is given as 7 mg/kg and the toxic dose (without epinephrine) is given as 3 mg per kilogram.
